Reference: PMC5840776
No constants are given. Whether binding was seen depends on the method and setting. Binding seen in cells or lysates may run through a third protein. Some binding calls cover weakened binding; strength is not graded here. Sequences can lack the tags named with a protein.

Sequences of proteins named here, by UniProt entry; tags and fusion partners are left off.
UniProt Q13153: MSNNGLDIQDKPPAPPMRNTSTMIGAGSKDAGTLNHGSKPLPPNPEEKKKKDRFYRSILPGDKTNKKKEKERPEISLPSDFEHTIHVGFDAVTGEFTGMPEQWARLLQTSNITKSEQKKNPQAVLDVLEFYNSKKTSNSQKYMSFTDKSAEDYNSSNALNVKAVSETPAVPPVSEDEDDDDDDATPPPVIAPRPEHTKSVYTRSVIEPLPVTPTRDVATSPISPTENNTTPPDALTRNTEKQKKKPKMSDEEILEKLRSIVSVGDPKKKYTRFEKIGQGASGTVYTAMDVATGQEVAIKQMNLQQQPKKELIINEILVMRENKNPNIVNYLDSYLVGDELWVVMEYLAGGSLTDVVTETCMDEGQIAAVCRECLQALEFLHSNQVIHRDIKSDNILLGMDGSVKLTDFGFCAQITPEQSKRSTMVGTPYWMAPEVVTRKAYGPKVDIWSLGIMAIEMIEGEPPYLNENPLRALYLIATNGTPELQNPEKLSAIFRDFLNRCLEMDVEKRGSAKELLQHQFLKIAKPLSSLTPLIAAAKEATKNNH
UniProt Q9NQU5: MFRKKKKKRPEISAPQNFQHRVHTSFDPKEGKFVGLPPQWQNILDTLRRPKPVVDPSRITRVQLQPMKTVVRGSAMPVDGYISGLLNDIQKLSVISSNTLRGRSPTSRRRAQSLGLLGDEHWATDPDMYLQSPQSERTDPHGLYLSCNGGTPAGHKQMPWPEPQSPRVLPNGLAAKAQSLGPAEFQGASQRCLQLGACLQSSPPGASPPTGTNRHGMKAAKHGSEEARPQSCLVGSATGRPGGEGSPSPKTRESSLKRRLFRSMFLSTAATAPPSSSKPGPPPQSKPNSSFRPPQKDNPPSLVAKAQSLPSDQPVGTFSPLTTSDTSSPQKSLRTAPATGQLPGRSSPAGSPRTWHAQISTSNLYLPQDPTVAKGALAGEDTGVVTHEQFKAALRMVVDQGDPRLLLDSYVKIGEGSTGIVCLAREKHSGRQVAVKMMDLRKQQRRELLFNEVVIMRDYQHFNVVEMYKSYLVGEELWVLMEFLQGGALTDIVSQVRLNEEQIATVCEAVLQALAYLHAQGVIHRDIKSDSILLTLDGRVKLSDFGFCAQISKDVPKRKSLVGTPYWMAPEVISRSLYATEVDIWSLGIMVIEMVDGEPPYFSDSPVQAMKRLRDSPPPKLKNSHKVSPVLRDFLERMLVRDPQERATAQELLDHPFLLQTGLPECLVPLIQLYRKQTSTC
UniProt Q9P286: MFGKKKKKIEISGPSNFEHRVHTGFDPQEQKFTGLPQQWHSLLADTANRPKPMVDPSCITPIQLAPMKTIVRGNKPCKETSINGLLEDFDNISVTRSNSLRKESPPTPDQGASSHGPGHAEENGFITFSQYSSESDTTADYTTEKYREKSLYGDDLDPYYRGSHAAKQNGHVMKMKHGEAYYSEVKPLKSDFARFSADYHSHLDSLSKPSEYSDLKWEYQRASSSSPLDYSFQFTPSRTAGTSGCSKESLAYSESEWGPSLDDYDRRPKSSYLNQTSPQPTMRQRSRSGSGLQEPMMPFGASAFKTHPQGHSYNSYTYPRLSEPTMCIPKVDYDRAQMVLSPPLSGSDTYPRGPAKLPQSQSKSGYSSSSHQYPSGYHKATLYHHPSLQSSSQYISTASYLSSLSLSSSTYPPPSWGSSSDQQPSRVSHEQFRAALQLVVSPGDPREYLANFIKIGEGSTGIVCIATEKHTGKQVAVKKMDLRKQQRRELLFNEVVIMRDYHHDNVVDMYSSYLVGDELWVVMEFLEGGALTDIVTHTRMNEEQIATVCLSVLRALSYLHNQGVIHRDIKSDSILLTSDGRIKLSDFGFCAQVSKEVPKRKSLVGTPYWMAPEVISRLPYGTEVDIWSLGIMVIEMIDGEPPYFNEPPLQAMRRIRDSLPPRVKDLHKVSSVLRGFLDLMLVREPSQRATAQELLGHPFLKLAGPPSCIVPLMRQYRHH
UniProt Q13177: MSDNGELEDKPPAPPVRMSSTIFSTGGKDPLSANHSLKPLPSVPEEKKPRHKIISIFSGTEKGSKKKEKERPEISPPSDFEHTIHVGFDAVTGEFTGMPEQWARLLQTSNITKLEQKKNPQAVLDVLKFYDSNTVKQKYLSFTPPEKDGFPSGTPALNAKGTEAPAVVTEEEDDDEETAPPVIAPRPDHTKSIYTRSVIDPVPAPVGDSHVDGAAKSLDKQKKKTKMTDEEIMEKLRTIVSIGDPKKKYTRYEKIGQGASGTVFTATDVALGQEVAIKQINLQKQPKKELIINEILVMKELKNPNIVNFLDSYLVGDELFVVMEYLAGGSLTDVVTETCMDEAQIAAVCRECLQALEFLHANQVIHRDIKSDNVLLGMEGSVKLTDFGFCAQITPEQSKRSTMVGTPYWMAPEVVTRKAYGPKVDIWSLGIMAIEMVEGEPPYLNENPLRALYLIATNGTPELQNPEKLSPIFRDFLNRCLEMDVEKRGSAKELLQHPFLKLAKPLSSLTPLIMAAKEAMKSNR

Molecular target: T1, GFP-RhoH (UniProt Q15669)
T1 sequence: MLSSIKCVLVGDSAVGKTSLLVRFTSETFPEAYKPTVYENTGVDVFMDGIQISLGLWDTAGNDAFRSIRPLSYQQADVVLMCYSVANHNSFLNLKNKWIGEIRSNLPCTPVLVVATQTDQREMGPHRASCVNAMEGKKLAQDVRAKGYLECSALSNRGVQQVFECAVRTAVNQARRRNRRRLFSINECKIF
Assay: co-IP; COS7 cells transfected with GFP-RhoH and myc epitope-tagged PAKs; after 24 h lysates incubated with GFP-Trap beads (GFP IP), western blot

binding	Substance
binds	myc epitope-tagged PAK1 (from UniProt Q13153 1-545) (enzyme)
binds	myc epitope-tagged PAK6 (from UniProt Q9NQU5 1-681) (enzyme)
binds	myc epitope-tagged PAK4 (from UniProt O96013-1 1-591) (enzyme)
binds	myc epitope-tagged PAK5 (from UniProt Q9P286 1-719) (enzyme)

Substance	binding
Myc-PAK2 (from UniProt Q13177 1-524) (enzyme)	binds

Molecular target: T2, HA-RhoH (UniProt Q15669)
T2 sequence: T1 sequence
Assay: co-IP; COS7 cells transfected with HA-RhoH, GFP-Rac1 and Myc-PAK2; text: RhoH immunoprecipitates; legend: GFP-Trap beads (GFP IP); western blot

Substance	binding
Myc-PAK2 (from UniProt Q13177 1-524) (enzyme)	binds
